Test results published in paper PMC12355088, “Structural analysis of TRIM family PRYSPRY domains and its implications for E3-ligand design” (Journal of Structural Biology: X, 2025).
These are yes or no findings as the source states them, for the method shown. Some binding calls cover weakened binding; strength is not graded here.

Biological target: TRIM36 PRYSPRY domain (human) (UniProt Q9NQ86)
Experiment: crystal structure; sitting-drop vapor diffusion at 20 °C; isolated PRYSPRY domains, contacts between chains of the asymmetric unit; both purified

- binding: binds
B1: TRIM36 PRYSPRY domain (domain or fragment, human)
chain: TPPAPVFSFLFDEKCGYNNEHLLLNLKRDRVESRAGFNLLLAAERIQVGYYTSLDYIIGDTGITKGKHFWAFRVEPYSYLVKVGVASSDKLQEWLRSPRDAVSPRYEQDSGHDSGSEDACFDSSQPFTLVTIGMQKFFIPKSPTSSNEPENRVLPMPTSIGIFLDCDKGKVDFYDMDQMKCLYERQVDCSHTLYPAFALMGSGGIQLEEPITAKYLEYQEDM
notes: PRYSPRY domain of human TRIM36, with an additional C-terminal helix; theoretical MW of the dimer 52.4 kDa; Cloned into pNIC-CTH0; also called TRIM36 domain
